This passage reports binding results from PMC11750563.

Chains of the proteins cited; added tags and fusions are not shown.
UniProt Q08J23: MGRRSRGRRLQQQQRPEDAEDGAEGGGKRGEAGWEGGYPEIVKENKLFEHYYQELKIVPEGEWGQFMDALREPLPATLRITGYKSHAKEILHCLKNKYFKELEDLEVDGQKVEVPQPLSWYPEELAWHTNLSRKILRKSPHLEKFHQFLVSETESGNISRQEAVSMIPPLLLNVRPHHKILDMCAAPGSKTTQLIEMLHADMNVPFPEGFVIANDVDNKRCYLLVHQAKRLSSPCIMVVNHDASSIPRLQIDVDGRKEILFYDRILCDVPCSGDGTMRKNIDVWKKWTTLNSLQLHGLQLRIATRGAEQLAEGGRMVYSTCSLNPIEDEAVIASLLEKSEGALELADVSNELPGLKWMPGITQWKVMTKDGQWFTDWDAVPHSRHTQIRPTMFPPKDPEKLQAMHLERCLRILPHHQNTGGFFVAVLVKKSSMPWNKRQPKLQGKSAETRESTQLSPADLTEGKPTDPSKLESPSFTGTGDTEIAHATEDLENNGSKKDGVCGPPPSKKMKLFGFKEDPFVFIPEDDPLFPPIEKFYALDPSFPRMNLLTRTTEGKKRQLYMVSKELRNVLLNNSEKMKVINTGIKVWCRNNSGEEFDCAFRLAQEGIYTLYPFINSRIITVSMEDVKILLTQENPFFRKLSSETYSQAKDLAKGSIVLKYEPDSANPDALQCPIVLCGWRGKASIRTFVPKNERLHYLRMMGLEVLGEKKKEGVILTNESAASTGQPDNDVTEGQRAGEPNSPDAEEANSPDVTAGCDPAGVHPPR

This test has as its target Flag-NSUN2 (NOP2/Sun domain family member 2) (UniProt Q08J23). Description: affinity purification with mass spectrometry; Flag-NSUN2 from transfected HEK293 lysate held on Flag-M2 beads, 2 h at 4 °C; IP buffer 150 mM NaCl, 50 mM Tris-HCl pH 7.5, 1 % NP-40, 5 mM EDTA; silver staining and LC-MS/MS.

Results are given in words; binding and its absence hold for the method and conditions named. In cells and extracts the contact can be indirect. These calls come from enrichment with a bait or labelling near it, and not all partners need be listed.

B1: N-α-acetyltransferase 10 (NAA10), endogenous (enzyme, UniProt P41227 1-235)
chain: MNIRNARPEDLMNMQHCNLLCLPENYQMKYYFYHGLSWPQLSYIAEDENGKIVGYVLAKMEEDPDDVPHGHITSLAVKRSHRRLGLAQKLMDQASRAMIENFNAKYVSLHVRKSNRAALHLYSNTLNFQISEVEPKYYADGEDAYAMKRDLTQMADELRRHLELKEKGRHVVLGAIENKVESKGNSPPSSGEACREEKGLAAEDSGGDSKDLSEVSETTESTDVKDSSEASDSAS
B1: the binding result is “binds”.
